Measurements reported in article PMC7578904.
Results are given in words; binding and its absence hold for the method and conditions named. In cells and extracts the contact can be indirect. Some results given as binding are weak or reduced against the parent protein; the word gives no strength. For some assays here: Sequences can lack the tags named with a protein.

The chains behind the UniProt entries cited, without tags or fusion partners. Where a name states a change or a piece, a line headed by the entry shows the natural chain unless it says otherwise.
UniProt Q8IYW5: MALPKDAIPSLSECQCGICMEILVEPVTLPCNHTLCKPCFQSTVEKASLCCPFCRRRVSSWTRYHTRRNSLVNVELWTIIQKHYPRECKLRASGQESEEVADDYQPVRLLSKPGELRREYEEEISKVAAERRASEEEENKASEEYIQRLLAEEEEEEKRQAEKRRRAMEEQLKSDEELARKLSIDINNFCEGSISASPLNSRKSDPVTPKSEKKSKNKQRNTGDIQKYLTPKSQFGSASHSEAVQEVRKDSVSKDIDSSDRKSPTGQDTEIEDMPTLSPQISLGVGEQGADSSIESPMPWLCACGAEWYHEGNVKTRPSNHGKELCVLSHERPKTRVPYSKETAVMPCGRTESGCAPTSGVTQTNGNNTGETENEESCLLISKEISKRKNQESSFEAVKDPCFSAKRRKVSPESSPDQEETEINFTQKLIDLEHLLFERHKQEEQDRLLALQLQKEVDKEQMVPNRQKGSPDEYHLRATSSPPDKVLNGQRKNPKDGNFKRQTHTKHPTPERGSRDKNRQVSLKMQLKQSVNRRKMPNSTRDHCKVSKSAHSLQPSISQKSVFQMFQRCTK
UniProt P49959: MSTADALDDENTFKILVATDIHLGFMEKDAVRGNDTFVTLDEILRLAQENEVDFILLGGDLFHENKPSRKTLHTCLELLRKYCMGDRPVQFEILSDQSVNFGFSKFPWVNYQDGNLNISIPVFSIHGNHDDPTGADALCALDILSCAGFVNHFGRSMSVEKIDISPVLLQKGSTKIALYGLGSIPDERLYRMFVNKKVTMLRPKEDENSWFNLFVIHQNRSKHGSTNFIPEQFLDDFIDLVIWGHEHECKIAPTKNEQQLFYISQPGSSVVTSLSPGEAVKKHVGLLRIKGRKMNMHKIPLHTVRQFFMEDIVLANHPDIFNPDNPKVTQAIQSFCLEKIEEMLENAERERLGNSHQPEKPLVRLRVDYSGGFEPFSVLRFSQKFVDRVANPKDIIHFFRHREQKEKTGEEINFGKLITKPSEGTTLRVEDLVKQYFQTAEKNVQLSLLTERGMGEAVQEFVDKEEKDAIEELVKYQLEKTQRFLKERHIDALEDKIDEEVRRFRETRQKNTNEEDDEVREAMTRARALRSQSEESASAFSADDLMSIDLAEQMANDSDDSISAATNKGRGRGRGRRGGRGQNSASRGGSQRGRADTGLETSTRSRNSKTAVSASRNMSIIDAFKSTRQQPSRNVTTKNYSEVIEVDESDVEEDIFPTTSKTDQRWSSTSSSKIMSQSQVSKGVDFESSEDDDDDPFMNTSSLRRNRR
UniProt Q92878: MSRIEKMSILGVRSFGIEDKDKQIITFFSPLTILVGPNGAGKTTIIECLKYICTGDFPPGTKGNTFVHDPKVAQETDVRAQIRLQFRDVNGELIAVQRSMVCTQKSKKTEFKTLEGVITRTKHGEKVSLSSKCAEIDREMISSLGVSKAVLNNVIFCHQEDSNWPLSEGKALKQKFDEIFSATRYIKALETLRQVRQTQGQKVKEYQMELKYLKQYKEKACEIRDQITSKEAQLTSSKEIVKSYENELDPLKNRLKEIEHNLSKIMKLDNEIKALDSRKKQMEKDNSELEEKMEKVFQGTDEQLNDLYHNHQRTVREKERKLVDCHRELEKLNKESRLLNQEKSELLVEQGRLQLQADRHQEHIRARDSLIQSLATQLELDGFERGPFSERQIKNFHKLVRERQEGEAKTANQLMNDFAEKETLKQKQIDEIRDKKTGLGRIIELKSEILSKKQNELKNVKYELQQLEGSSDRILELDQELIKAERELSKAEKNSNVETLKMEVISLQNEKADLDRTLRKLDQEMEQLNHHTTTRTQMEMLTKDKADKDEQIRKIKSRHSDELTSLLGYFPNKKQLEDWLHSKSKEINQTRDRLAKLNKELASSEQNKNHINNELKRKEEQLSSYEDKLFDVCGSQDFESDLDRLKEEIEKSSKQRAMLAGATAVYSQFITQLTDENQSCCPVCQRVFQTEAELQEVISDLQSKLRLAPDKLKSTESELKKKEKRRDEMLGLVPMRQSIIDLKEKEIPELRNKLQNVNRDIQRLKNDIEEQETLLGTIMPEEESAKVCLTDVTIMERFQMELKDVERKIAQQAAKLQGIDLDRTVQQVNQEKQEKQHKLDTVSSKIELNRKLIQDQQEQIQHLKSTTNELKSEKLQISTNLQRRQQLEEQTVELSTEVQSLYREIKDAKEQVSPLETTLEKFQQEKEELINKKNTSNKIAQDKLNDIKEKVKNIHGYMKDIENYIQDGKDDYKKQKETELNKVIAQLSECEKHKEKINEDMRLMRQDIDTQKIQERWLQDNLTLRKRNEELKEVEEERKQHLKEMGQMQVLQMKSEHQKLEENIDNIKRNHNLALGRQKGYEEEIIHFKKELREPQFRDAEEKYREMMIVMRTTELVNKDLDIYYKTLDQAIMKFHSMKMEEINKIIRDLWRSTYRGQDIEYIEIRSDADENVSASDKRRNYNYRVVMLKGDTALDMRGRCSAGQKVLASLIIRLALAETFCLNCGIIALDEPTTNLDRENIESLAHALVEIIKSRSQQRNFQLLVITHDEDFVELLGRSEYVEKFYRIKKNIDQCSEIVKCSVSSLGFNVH
UniProt O60934: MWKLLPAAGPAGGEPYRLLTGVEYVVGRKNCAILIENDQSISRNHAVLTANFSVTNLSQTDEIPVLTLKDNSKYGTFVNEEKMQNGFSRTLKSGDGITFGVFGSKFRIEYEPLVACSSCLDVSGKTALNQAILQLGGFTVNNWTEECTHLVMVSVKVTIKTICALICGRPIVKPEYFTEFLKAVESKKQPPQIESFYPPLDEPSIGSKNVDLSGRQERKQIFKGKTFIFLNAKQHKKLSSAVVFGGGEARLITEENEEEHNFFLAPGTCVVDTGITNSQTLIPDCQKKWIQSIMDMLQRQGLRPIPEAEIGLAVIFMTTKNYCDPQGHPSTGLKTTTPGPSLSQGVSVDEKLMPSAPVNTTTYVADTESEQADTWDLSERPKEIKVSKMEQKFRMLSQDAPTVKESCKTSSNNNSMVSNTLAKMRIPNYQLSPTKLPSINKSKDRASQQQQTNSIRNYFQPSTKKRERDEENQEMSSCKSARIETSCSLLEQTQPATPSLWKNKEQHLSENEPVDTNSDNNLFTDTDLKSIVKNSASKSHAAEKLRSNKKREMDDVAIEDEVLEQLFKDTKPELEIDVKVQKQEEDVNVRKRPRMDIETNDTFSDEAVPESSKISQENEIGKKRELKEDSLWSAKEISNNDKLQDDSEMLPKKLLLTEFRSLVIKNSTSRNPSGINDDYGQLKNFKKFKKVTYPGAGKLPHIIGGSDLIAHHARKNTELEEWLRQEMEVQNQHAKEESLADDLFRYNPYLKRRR
UniProt Q13535: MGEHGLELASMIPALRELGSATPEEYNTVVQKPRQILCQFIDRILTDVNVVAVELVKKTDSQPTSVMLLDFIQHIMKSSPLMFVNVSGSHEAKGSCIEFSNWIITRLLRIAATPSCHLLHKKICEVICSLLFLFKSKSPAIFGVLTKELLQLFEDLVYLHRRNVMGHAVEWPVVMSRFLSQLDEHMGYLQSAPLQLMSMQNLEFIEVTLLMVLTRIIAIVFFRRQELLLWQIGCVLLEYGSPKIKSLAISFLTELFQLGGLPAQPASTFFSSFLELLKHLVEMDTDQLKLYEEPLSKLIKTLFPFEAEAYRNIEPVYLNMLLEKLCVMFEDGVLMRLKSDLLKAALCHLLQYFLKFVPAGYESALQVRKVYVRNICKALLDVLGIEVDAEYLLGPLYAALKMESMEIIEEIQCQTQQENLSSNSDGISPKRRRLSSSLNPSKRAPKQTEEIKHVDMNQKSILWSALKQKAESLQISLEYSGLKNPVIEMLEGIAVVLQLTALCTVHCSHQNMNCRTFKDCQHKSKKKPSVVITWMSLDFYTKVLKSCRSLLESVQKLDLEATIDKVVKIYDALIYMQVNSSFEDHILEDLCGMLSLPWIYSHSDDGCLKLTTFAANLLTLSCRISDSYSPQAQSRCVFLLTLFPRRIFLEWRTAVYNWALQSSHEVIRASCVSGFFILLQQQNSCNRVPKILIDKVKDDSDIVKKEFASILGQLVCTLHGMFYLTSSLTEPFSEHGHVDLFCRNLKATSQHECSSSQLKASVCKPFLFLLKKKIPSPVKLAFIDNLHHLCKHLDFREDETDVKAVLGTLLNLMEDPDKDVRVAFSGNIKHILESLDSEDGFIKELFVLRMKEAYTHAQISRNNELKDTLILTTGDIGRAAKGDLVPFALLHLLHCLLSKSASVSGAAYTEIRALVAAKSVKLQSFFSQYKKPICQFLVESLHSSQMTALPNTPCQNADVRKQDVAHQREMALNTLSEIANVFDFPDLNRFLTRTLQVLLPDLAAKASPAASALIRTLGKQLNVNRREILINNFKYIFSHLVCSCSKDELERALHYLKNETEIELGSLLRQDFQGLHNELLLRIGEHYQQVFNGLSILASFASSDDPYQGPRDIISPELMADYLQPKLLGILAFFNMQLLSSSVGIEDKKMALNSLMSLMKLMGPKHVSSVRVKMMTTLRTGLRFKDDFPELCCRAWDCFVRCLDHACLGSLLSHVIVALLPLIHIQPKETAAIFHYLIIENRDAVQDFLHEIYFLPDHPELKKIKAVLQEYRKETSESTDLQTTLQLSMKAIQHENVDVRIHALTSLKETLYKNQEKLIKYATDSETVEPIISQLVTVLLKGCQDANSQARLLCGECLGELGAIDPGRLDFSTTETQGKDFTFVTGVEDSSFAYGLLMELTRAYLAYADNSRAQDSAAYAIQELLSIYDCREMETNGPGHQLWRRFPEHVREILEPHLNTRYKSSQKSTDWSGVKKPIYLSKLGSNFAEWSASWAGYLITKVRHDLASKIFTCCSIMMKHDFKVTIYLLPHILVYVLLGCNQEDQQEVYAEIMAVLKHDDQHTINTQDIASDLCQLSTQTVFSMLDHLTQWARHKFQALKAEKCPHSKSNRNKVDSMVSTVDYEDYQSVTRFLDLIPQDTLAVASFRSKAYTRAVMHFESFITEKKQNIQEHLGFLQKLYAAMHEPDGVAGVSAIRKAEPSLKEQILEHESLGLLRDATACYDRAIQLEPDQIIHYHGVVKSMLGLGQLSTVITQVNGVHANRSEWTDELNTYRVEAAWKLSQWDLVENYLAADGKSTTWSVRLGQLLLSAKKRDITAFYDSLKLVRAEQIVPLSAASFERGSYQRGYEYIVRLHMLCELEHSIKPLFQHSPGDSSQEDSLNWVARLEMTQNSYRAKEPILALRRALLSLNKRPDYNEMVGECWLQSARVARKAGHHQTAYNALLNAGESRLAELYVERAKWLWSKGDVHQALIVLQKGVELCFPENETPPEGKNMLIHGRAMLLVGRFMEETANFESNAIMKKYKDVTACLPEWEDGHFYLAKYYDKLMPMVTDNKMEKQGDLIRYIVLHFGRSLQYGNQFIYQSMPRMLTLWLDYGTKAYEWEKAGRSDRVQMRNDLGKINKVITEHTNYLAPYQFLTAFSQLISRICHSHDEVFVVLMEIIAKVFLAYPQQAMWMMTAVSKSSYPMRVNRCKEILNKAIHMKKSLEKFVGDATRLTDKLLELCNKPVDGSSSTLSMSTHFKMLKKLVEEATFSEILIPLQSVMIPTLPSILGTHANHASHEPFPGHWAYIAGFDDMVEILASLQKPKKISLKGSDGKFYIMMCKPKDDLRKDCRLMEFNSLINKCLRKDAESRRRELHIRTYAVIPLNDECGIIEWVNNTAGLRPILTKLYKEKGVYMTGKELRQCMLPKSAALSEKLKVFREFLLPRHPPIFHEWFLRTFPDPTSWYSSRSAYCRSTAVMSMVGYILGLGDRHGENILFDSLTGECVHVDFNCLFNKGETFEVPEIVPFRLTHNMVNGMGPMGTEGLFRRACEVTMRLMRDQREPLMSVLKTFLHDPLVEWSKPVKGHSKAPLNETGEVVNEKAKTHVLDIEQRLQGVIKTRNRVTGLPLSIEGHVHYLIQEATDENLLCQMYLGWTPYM
UniProt Q13547: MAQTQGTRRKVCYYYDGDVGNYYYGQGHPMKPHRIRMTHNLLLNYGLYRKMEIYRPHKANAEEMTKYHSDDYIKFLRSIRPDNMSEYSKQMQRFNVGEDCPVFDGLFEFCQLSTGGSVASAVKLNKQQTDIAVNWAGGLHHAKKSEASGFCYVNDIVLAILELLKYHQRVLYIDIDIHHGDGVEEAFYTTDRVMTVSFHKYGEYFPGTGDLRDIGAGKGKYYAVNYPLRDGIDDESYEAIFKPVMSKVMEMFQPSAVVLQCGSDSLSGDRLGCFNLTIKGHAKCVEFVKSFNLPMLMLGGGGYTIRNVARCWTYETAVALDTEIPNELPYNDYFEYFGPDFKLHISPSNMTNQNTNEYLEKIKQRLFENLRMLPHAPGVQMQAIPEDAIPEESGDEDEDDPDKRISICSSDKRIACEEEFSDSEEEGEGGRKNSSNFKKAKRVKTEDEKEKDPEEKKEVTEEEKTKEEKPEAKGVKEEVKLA

What was measured:
[1] = target: T1, BRD7 (endogenous) (human (endogenous in HeLa)) (UniProt Q9NPI1); assay: co-IP; endogenous proteins of HeLa cells, untreated or treated with IR (5 Gy) or CPT (1 uM, 1 h); lysed in RIPA buffer, IP with the indicated antibodies overnight at 4 °C, washed three times with NETN buffer, Western blot
T1 sequence: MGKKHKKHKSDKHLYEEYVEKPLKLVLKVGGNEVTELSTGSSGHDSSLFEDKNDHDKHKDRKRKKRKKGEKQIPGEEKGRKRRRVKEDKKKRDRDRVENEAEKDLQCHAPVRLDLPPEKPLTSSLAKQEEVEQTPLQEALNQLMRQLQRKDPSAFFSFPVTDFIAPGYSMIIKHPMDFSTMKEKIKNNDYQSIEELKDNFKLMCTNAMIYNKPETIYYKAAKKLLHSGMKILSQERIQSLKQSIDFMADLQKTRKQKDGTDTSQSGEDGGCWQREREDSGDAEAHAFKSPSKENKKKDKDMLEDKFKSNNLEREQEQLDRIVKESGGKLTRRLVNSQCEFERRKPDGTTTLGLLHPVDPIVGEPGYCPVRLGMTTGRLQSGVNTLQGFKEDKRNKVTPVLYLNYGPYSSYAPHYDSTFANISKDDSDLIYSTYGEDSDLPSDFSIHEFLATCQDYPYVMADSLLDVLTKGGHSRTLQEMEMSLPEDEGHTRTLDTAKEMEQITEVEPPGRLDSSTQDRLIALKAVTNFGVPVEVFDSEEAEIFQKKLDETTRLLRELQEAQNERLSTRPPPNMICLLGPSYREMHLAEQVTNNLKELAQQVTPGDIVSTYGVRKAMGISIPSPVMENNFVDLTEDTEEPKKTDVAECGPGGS

[2] = target: T2, SFB-BRD7(Δ1-128) (human) (UniProt Q9NPI1); assay: co-IP; HeLa cells transfected with SFB-BRD7 wild type or deletion mutants for 24 h, IR (5 Gy) for 1 h; lysed with RIPA in the presence of benzonase; S beads; Western blot
T2 sequence: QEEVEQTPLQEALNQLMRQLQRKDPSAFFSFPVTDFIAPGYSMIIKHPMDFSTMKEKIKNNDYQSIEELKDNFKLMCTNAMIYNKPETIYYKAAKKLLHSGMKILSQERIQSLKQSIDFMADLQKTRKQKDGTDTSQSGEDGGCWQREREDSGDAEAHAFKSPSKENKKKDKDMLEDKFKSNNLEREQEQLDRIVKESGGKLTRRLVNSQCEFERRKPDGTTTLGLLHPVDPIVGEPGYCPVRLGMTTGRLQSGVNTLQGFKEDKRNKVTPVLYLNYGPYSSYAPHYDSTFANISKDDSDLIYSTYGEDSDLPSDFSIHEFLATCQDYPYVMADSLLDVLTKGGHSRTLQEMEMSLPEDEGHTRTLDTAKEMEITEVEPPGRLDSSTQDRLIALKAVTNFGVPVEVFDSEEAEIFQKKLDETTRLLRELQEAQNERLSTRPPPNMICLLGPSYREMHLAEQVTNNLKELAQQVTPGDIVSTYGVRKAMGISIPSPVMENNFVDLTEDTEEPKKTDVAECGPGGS

[3] = target: T3, BRD7 (ΔBD, a mutant lacking the bromodomain) (human) (UniProt Q9NPI1); assay: pull-down; GST-BRD7 wildtype and mutants purified from bacteria, immobilised on glutathione-agarose beads, incubated with HeLa cell lysates overnight at 30 °C, washed with NETN buffer three times, Western blot; only the target purified
T3 sequence: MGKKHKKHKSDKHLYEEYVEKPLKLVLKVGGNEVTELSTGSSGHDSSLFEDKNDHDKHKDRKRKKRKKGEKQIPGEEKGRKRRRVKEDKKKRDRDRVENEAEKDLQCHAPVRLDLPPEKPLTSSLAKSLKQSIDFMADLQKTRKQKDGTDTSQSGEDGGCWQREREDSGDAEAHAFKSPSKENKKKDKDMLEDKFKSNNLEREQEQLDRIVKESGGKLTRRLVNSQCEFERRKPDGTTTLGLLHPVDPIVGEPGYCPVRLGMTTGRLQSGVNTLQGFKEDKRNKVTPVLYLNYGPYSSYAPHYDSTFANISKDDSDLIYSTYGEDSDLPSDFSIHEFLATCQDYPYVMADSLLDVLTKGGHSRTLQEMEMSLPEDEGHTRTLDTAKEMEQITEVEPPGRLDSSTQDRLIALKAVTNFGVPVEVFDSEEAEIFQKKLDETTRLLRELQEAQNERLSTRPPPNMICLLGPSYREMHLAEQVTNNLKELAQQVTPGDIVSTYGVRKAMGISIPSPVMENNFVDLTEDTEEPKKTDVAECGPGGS

[4] = target: T4, GST-BRD7 wildtype (human) (UniProt Q9NPI1); assay: as above
T4 sequence: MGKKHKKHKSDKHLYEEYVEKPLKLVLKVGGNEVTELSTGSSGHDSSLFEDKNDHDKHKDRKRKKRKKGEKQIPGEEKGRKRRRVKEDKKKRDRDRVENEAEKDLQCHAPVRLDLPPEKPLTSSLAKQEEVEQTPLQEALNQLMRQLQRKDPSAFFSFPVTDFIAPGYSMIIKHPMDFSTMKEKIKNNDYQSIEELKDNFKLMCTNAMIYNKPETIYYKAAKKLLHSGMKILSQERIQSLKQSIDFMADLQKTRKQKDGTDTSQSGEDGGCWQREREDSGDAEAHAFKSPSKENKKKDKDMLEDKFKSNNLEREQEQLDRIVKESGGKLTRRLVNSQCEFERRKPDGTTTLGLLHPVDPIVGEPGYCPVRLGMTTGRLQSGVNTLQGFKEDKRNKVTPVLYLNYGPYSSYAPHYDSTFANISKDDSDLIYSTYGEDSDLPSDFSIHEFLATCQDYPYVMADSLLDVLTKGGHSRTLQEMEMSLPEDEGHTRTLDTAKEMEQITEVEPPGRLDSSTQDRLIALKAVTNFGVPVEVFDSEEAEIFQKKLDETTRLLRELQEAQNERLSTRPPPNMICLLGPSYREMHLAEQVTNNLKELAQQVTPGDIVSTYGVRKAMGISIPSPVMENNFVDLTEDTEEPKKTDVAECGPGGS

[5] = target: T5, BRD7 with deletion of the 1–128 domain (human) (UniProt Q9NPI1); assay: as above
T5 sequence: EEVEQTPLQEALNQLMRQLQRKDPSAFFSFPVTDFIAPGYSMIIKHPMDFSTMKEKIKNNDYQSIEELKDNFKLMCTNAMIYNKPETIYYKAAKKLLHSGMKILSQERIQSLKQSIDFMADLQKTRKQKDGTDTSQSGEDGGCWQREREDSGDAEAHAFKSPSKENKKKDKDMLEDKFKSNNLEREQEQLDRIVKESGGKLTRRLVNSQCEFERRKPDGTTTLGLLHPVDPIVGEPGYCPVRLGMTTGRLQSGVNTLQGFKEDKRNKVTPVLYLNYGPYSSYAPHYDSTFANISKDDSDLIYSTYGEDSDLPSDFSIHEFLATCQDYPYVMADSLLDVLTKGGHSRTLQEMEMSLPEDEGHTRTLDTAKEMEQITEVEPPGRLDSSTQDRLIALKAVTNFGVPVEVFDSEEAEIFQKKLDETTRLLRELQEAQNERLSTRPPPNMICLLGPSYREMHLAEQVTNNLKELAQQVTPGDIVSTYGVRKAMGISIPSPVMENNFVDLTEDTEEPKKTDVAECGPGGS

[6] = target: RNF168 (endogenous) (human (endogenous in HeLa)) (UniProt Q8IYW5); assay: co-IP; endogenous proteins of HeLa cells, untreated or treated with IR (5 Gy) or CPT (1 uM, 1 h); lysed in RIPA buffer, IP with the indicated antibodies overnight at 4 °C, washed three times with NETN buffer, Western blot
[7] = target: MRE11‐RAD50‐NBS1 (MRN) complex (human (endogenous in HeLa)) (UniProt P49959+Q92878+O60934); assay: as above
[8] = target: ATM (endogenous) (human (endogenous in HeLa)) (UniProt Q13315); assay: as above
[9] = target: ATR (endogenous) (human (endogenous in HeLa)) (UniProt Q13535); assay: as above
[10] = target: Flag-RNF168 (human) (UniProt Q8IYW5); assay: co-IP; HeLa cells transfected with Flag-RNF8 or Flag-RNF168, treated with IR (5 Gy), IP with anti-Flag, Western blot for endogenous BRD7
[11] = target: T6, Flag-RNF8 (human) (UniProt O76064); assay: as above
T6 sequence: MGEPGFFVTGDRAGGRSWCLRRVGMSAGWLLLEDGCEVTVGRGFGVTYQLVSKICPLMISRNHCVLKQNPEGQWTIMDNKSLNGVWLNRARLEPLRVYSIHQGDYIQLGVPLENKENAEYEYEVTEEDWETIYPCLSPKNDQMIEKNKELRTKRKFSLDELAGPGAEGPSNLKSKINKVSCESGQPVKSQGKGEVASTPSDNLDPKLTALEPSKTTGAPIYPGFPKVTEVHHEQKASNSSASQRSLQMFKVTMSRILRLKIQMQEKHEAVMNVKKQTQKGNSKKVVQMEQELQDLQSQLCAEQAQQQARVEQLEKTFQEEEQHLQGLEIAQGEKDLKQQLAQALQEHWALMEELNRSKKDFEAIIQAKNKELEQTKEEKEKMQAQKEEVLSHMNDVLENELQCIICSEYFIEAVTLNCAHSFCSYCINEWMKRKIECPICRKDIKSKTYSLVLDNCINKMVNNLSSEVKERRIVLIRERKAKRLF

Q: Which binding [1] does the source give for “HDAC1 (from UniProt Q13547 1-482) (enzyme)” here?
A: The binding was “no binding”.

Q: “HDAC2 (from UniProt Q92769 1-488) (enzyme)” was tested. Which binding [1] did it give?
A: The binding was “no binding”.

Q: “MRE11-RAD50-NBS1 (MRN) complex (from UniProt P49959 1-708; Q92878 1-1312; O60934 1-754)” was tested. Which binding [2] did it give?
A: Its binding is “no binding”.

Q: How did the binding [3] turn out when “MRE11‐RAD50‐NBS1 (MRN) complex (from UniProt P49959 1-708; Q92878 1-1312; O60934 1-754)” was run?
A: Its binding is “binds”.

Q: And the binding [4]?
A: Its binding is “binds”.

Q: And the binding [5]?
A: Its binding is “binds”.

Q: And the binding [1]?
A: Its binding is “binds”.

Q: How did the binding [4] turn out when “RNF168 (endogenous) (from UniProt Q8IYW5 1-571) (enzyme)” was run?
A: Its binding is “binds”.

B1: BRD7 (endogenous) (protein, UniProt Q9NPI1-2 1-652)
chain: MGKKHKKHKSDKHLYEEYVEKPLKLVLKVGGNEVTELSTGSSGHDSSLFEDKNDHDKHKDRKRKKRKKGEKQIPGEEKGRKRRRVKEDKKKRDRDRVENEAEKDLQCHAPVRLDLPPEKPLTSSLAKQEEVEQTPLQEALNQLMRQLQRKDPSAFFSFPVTDFIAPGYSMIIKHPMDFSTMKEKIKNNDYQSIEELKDNFKLMCTNAMIYNKPETIYYKAAKKLLHSGMKILSQERIQSLKQSIDFMADLQKTRKQKDGTDTSQSGEDGGCWQREREDSGDAEAHAFKSPSKENKKKDKDMLEDKFKSNNLEREQEQLDRIVKESGGKLTRRLVNSQCEFERRKPDGTTTLGLLHPVDPIVGEPGYCPVRLGMTTGRLQSGVNTLQGFKEDKRNKVTPVLYLNYGPYSSYAPHYDSTFANISKDDSDLIYSTYGEDSDLPSDFSIHEFLATCQDYPYVMADSLLDVLTKGGHSRTLQEMEMSLPEDEGHTRTLDTAKEMEQITEVEPPGRLDSSTQDRLIALKAVTNFGVPVEVFDSEEAEIFQKKLDETTRLLRELQEAQNERLSTRPPPNMICLLGPSYREMHLAEQVTNNLKELAQQVTPGDIVSTYGVRKAMGISIPSPVMENNFVDLTEDTEEPKKTDVAECGPGGS
Q: For B1, which binding [6] is on record?
A: The binding was “binds”.

Q: And the binding [7]?
A: The binding was “binds”.

Q: And the binding [8]?
A: Its binding is “binds”.

Q: What about the binding [9] of the same molecule?
A: The binding was “binds”.

Q: What about the binding [10] of the same molecule?
A: Its binding is “binds”.

Q: And the binding [11]?
A: Its binding is “no binding”.
